Not every detail of the peptide structures is certain; ends, links or a residue may be inferred. Ends that are not written are not given here.
Biological target: T1, TF/heparanase complex (Homo sapiens, UniProt P13726+Q9Y251, DEL111-157/INS109GSGSG)
T1 construct: comprised of the 8 kDa and 50 kDa heparanase heterodimer (8+50); purchased American Diagnostica (Stanford, Conn., USA) for TF and factor VIIa; host or cells: heparanase GS3 made in house: conditioned medium of baculovirus-infected cells
Experiment: Inhibition of heparanase procoagulant activity in the factor Xa generation assay
Type: biochemical
Details: peptide 25 μg/ml (15 μM), heparanase 1.5 μM, FIG. 26
Protocol: FIG. 23A. Factor Xa levels was evaluated by chromogenic substrate in an in-vitro assay including purified proteins of tissue factor (TF), factor VIIa, factor X and assay buffer.
FIG. 26. Factor Xa levels was evaluated by chromogenic substrate in an in-vitro assay including lipidated TF (0.004 μM), factor VIIa (0.04 μM) and factor X (1.4 μM). The Xa level was studied by a chromogenic substrate (1 mM).
Following preliminary experiments to quantify the appropriate protein doses, we performed a basic experiment of factor Xa generation in the following manner: the concentrations mentioned are the final concentrations. Lipidated recombinant human TF (0.004 μM, […]), recombinant human factor VIIa (0.04 μM) and plasma-derived human factor X (1.4 μM) were incubated in 50 μL assay buffer (0.06 M Tris, 0.04 M NaCl, 2 mM CaCl 2, 0.04% bovine serum albumin, pH 8.4) to a total volume of 125 μL in a 96-well sterile plate. After 15 min at 37° C., chromogenic substrate for factor Xa was added (1 mM). After 20 min, the reaction was stopped with 50 μL of glacial acetic acid and the level of factor Xa generation was determined using an enzyme-linked immunosorbent assay (ELISA) plate reader (Power Wave XS, BIO-TEK, VT, USA). […]

Sequences of proteins named here, by UniProt entry; tags and fusion partners are left off. A change or cut given only in a name is not applied to a line headed by its entry. Residues count along the entry.
UniProt P13726, 33-295, stated change not applied: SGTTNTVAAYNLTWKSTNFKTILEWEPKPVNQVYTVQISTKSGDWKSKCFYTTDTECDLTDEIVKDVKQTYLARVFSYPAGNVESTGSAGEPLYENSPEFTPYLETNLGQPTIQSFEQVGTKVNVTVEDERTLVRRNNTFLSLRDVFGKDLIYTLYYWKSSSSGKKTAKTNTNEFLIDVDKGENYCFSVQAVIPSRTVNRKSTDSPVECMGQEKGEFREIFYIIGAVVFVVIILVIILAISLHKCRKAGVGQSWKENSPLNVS
UniProt Q9Y251: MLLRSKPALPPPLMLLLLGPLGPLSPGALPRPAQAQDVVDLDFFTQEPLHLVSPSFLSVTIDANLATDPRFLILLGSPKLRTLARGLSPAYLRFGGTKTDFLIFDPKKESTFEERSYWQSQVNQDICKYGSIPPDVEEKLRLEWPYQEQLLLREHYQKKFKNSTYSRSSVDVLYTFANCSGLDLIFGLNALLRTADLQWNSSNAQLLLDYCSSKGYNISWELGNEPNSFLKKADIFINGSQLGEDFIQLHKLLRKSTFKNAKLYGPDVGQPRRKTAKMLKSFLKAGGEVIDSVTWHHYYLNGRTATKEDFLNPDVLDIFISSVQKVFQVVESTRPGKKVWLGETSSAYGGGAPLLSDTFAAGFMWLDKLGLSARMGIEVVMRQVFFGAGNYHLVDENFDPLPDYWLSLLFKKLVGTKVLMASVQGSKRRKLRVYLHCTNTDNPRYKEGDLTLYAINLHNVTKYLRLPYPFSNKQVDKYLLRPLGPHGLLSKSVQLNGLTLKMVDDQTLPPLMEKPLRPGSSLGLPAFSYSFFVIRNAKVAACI

## Ac-NNAEICLLPLDYGP [Peptide 7-Ac]
  procoagulant effect induced by heparanase (Xa level): inhibited the procoagulant effect induced by heparanase
